Source: paper PMC8636471
Results are given in words; binding and its absence hold for the method and conditions named. In cells and extracts the contact can be indirect. Some binding calls cover weakened binding; strength is not graded here. For some of these results: Sequences can lack the tags named with a protein. Blank lines part the entries; values can stand above or below the molecule they belong to.

By UniProt entry, the sequences of proteins in these tests, tags left out.
UniProt P35222: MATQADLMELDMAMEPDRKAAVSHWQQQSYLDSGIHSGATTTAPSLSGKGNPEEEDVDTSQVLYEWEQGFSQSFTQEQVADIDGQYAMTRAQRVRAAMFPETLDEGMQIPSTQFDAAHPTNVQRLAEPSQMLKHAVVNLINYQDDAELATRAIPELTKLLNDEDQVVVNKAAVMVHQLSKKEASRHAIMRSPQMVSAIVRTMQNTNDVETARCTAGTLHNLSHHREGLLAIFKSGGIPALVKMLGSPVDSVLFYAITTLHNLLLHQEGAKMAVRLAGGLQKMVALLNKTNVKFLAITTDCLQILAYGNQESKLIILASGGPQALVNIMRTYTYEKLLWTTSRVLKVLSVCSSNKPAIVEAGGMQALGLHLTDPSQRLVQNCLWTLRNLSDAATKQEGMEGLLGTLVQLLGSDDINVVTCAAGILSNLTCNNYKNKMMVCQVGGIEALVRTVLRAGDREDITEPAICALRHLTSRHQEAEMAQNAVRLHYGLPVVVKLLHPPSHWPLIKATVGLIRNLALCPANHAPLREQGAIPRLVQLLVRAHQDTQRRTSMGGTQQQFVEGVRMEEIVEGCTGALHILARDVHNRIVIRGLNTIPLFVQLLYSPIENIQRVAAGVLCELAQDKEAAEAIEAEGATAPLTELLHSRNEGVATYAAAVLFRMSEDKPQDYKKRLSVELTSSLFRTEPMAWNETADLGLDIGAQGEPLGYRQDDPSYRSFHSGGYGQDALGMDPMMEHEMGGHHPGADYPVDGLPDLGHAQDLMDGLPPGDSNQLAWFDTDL

Columns and labels:
GST-DSTYK fusion protein = target: T1, GST-DSTYK fusion protein (UniProt Q6XUX3); experiment: pull-down; 5 µg of GST or GST-DSTYK fusion protein added to cell lysate (RIPA buffer) at 4 °C, Sepharose 4B beads, western blot for endogenous β-catenin; only the target purified
T1 sequence: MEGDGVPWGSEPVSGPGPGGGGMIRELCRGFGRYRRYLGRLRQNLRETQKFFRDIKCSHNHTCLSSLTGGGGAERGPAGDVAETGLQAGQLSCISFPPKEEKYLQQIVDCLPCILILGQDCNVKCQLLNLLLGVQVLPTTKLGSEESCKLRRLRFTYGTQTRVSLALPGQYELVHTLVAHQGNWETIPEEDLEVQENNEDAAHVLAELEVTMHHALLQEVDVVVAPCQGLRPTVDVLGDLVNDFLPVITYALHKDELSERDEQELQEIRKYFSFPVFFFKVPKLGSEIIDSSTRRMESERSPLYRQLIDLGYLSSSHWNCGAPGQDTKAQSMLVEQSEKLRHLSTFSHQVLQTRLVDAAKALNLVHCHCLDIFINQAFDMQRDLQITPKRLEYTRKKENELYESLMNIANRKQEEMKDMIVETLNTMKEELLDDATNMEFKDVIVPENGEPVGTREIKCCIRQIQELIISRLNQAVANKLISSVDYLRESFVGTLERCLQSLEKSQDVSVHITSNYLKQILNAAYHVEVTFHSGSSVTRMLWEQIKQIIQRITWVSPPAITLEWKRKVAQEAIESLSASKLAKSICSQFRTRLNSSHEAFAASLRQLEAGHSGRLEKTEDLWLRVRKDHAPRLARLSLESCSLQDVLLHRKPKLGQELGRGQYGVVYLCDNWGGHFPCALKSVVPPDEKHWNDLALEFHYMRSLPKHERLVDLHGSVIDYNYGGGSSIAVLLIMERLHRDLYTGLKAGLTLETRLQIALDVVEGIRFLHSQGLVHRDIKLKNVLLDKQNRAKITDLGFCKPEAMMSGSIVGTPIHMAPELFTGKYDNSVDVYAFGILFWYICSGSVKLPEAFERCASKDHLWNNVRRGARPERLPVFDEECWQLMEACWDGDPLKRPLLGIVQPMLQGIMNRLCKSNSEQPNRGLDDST

[1] = target: T2, N-terminus of DSTYK (1-500 aa) (UniProt Q6XUX3); experiment: co-IP; exogenously expressed Flag-DSTYK (or its fragments) and myc-β-catenin; cells harvested 48 h after transfection, RIPA buffer, antibody overnight at 4 °C with IgG as control, protein A beads, western blot
T2 sequence: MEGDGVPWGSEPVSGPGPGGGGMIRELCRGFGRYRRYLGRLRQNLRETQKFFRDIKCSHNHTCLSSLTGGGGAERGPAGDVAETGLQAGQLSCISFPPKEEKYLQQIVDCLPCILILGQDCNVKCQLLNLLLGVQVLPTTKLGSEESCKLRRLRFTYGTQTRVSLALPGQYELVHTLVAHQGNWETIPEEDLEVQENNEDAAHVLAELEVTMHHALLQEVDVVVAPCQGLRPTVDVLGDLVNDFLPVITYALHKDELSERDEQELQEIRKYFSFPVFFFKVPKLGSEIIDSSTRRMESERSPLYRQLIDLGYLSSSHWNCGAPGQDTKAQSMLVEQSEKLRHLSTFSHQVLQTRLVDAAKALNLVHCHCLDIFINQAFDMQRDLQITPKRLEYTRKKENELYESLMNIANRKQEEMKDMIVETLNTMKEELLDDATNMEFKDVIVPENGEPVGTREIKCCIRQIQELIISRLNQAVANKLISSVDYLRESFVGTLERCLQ

[2] = target: T3, Flag-DSTYK (dual serine/threonine and tyrosine protein kinase), full length (UniProt Q6XUX3); experiment: as above
T3 sequence: T1 sequence

[3] = target: endogenous β-catenin (human (endogenous in lung adenocarcinoma cells)) (UniProt P35222); experiment: co-IP; endogenous proteins in lung adenocarcinoma cells (by the text); cells lysed with RIPA buffer, anti-β-catenin antibody for immunoprecipitation, western blot

binding (GST-DSTYK fusion protein): binds
Molecule: endogenous β-catenin (from UniProt P35222 1-781)

binding [1]: binds
binding [2]: binds
Molecule: myc-β-catenin (from UniProt P35222 1-781)

binding [3]: binds
B1: endogenously expressed DSTYK (enzyme, UniProt Q6XUX3 1-929)
chain: T1 sequence
